Test results from PubChem BioAssay AID540256 (National Center for Advancing Translational Sciences (NCATS), 2011).
Among all 300,000 compounds or so, about 3,700 (1.2%) were called active. Inconclusive means that the source gave no clear call. Such entries were picked first, then a sample of the others. The call rests on the fitted dose curve; tested in HEK293 cells. Potencies beside an inconclusive call are fits to weak or partial responses and may not hold up.

Experiment: qHTS for Inhibitors of binding or entry into cells for Lassa Virus; further: nearly all actives have a fitted effect of over 50% in size
Settings: Lassa virus pseudotype entry inhibition, cell reporter; activity change, negative = inhibition: at 37.9 µM (top of the series) unless noted
On the % scale 0 is the no-effect control and ±100 the full control effect; potency means the concentration at half of the fitted maximal effect.

Structure (SMILES)	Potency	activity change, negative = inhibition
CCOC(=O)N1CCc2c(sc(NCc3cccc(F)c3)c2C(=O)Nc2ccc(OC)cc2)C1	inconclusive: 35.5 µM [inhibitor, single point]	–
Cc1ccc(CNc2nc3ccc(Cl)cc3n3nnnc23)cc1	–	inactive: 7.12% [at 46.1 µM]
Brc1ccc(Nc2c3c(nc4nncn24)CCC3)cc1	–	inactive: -15.7% [at 46.1 µM]
N=C1S/C(=C\c2ccc(O)cc2)C(=O)N1c1ccc(F)cc1	inconclusive: 5.62 µM [inhibitor, single point]	–
CCCOC(=O)c1ccc(Oc2c(-c3ccc(OC)cc3O)n[nH]c2C)cc1	active: 11.2 µM	–
Cc1ccc(C(=O)Nc2ccc(-c3nc4ccccc4o3)cc2)cc1Cl	–	inactive: 3.65% [at 46.1 µM]
N#Cc1c(/N=C/N2CCOCC2)sc2c1CCCCC2	–	inactive: -0.255%
Cc1cccc(-n2c(O)c(C=NCc3ccccn3)c3ccccc3c2=O)c1	–	inactive: -6.29%
Cc1noc(C)c1COc1cccc(C(=O)N2CCc3ccccc32)c1	inconclusive: 35.5 µM [inhibitor, partial curve, poor fit]	–
COc1ccc(S(=O)(=O)NC2CC(=O)N(c3cccc(F)c3)C2)cc1OC (stereo not drawn)	–	inactive: -24.7%
CN(Cc1cc(=O)n2ccsc2n1)C1CCCCC1	–	inactive: 17.7%
COc1ccc(OC)c(NC(=O)Cn2c(=O)n(Cc3ccco3)c(=O)c3cc(OC)c(OC)cc32)c1	–	inactive: 10.1% [at 46.1 µM]
Cc1cc(C)cc(-n2c(SCC(=O)Nc3cccc(F)c3)nc3c([nH]c4ccccc43)c2=O)c1	–	inactive: 4.75% [at 46.1 µM]
CCN1C(=O)/C(=C/c2c(C)nn(C)c2C)SC1=S	inconclusive: 0.164 µM [inhibitor, full curve, poor fit]	–
CC(C)(C)NC(=S)/N=C(\N)N[N+](=O)[O-]	inconclusive: 35.5 µM [activator, single point]	–
CCCCN1C=CC(=C2N=c3cccc([N+](=O)[O-])c3=N2)C=C1	inconclusive: 10 µM [inhibitor, partial curve, poor fit]	–
O=[N+]([O-])c1cc(-c2nc(-c3ccccc3)no2)ccc1NCc1cccnc1	inconclusive: 22.4 µM [inhibitor, single point]	–
COCCn1c(=O)[nH]c2cc(C(=O)N3CCN(c4cccc(Cl)c4)CC3)ccc2c1=O	inconclusive: 11.2 µM [inhibitor, partial curve]	–
CC(=O)NC(=S)Nc1ccc(NC(=O)c2cccnc2)cc1	inconclusive: 7.08 µM [activator, single point]	–
Cc1ccc(C)c(NC(=O)CSc2nnc(-c3ccccc3C)o2)c1	–	inactive: 7.65%
Cc1nc(-c2nc(CC(=O)NNC(=O)c3ccc(Cl)cc3)cs2)cs1	inconclusive: 1.26 µM [inhibitor, single point]	–
CC(=O)Nc1nc(SCC(=O)NCC2CCCO2)[nH]c(=O)c1NC(=O)c1cccs1 (stereo not drawn)	–	inconclusive: 30.1% [activator]
CC(=O)[C@]1(O)Cc2c(O)c3c(c(O)c2[C@@H](O[C@H]2C[C@H](N)[C@H](O)[C@H](C)O2)C1)C(=O)c1ccccc1C3=O	inconclusive: 0.259 µM [inhibitor, full curve, poor fit]	–

Structure (SMILES)	Potency	activity change, negative = inhibition
Cc1cccc(NC(=O)CCN2CCN(C/C=C/c3ccccc3)CC2)c1	inconclusive: 0.501 µM [inhibitor, full curve, poor fit]	–
COc1ccc(-c2cc(=Nc3ccc(C)cc3)c3ccccc3o2)cc1	inconclusive: 20.6 µM [inhibitor, single point]	–
COc1ccccc1N1CCN(C2CCN(S(=O)(=O)c3ccc(NC(C)=O)cc3)CC2)CC1	inconclusive: 29.1 µM [inhibitor, partial curve, poor fit]	–
CCN(CC)S(=O)(=O)c1ccc2[nH]cc(C(=O)NCCCN3CCCCC3)c(=O)c2c1	inconclusive: 4.61 µM [inhibitor, partial curve]	–
CCOC(=O)CSc1nc2ccc(N)cc2s1	–	inactive: 1.68%
COc1ccc(-c2nnc(SCCOc3cccc(C)c3)n2N)cc1	inconclusive: 11.6 µM [inhibitor, partial curve]	–
COc1ccccc1N1CCN(Cc2nc(N)nc(Nc3ccc(C)cc3)n2)CC1	inconclusive: 10.3 µM [inhibitor, partial curve]	–
COCCN(Cc1ccccc1)C(=O)c1cccc(S(=O)(=O)N2CCN(c3ccccc3)CC2)c1	inconclusive: 12.6 µM [inhibitor, partial curve, poor fit]	–
CCOc1ccc2nc(Cl)c(/C=C/C(=O)c3ccco3)cc2c1	inconclusive: 8.2 µM [inhibitor, partial curve, poor fit]	–
COc1cccc(NC(=O)Nc2ccncc2)c1	–	inactive: 14.4%
Cc1cc(C(=O)NCC(=O)Nc2c(C)cccc2C)c(C)o1	–	inactive: 2.75% [at 46.1 µM]
O=C(COC(=O)CNC(=O)c1ccc(Cl)cc1Cl)NCc1ccco1	inconclusive: 25.1 µM [activator, single point]	–
COc1ccc(S(=O)(=O)N(CC(=O)NCCSc2ccccc2)c2ccc(C)cc2)cc1	–	inactive: -27% [at 46.1 µM]
COc1ccc(C2C(C(=O)Nc3cccc(C)n3)CCC(=O)N2c2ccc(OC)cc2)cc1 (stereo not drawn)	inconclusive: 3.16 µM [inhibitor, full curve]	–
O=C(NCc1ccc(F)cc1)c1cc2cccc3c2n1CCS3	inconclusive: 11.2 µM [inhibitor, partial curve, poor fit]	–
Cc1cc(C(=O)NNC(=S)NC(C)c2ccccc2)cs1 (stereo not drawn)	inconclusive: 29.1 µM [inhibitor, single point]	–
Cc1nn(Cc2noc(C(=O)NCc3ccc4c(c3)OCO4)n2)c(C)c1Br	inconclusive: 6.31 µM [inhibitor, single point]	–
O=C(O)c1ccc(Nc2nc(-c3ccccc3)cs2)cc1	inconclusive: 35.5 µM [inhibitor, single point]	–
COc1ccc(Cl)cc1NC(=S)NN1CCOCC1	–	inactive: 4.36% [at 46.1 µM]
O=C(CSc1nnc(-c2cccc(F)c2)o1)N1CCCC1	inconclusive: 31.6 µM [activator, single point]	–
Brc1ccc2ncnc(Nc3ccc(N4CCOCC4)cc3)c2c1	inconclusive: 14.1 µM [inhibitor, partial curve, poor fit]	–
Cc1ccc(NCC(=O)N=Nc2c(O)n(C)c3ccccc23)cc1	inconclusive: 2.82 µM [inhibitor, full curve, poor fit]	–
CCOP(=O)(OCC)C(CC)N1CCOCC1 (stereo not drawn)	–	inactive: 21.7%

Gathered by group, the compounds so far with bromine.
Structure (SMILES)	Potency	activity change, negative = inhibition
Brc1ccc(Nc2c3c(nc4nncn24)CCC3)cc1	–	inactive: -15.7% [at 46.1 µM]
Cc1nn(Cc2noc(C(=O)NCc3ccc4c(c3)OCO4)n2)c(C)c1Br	inconclusive: 6.31 µM [inhibitor, single point]	–
Brc1ccc2ncnc(Nc3ccc(N4CCOCC4)cc3)c2c1	inconclusive: 14.1 µM [inhibitor, partial curve, poor fit]	–

Following part.

Structure (SMILES)	Potency	activity change, negative = inhibition
COc1ccc2cc3cc(C(=O)NCCN4CCN(Cc5ccccc5)CC4)oc3nc2c1	inconclusive: 5.62 µM [inhibitor, full curve, poor fit]	–
O=C(N/N=C/c1cc(Br)cc([N+](=O)[O-])c1O)c1ccc(NC(=O)c2ccc(F)cc2)cc1	inconclusive: 1.12 µM [inhibitor, full curve, poor fit]	–
Cc1cc(NC(=O)c2noc3c2CCCCC3)no1	–	inactive: -18.2%
Cc1ccc(S(=O)(=O)c2cn(Cc3ccccc3)c3cc(N4CCCC4)c(F)cc3c2=O)cc1	–	inactive: 7.76% [at 46.1 µM]
COc1cccc(C(=O)O/N=C(\N)c2ccc([N+](=O)[O-])cc2)c1	inconclusive: 4.47 µM [activator, full curve, poor fit]	–
COc1cccc(CNC(=O)c2ccc3nc(-c4ccccc4)c(-c4ccccc4)nc3c2)c1OC	inconclusive: 35.5 µM [inhibitor, single point]	–
Cc1cc(C)c(Cn2c3ccccc3c3cnn(CC(=O)NCCC4=CCCCC4)c(=O)c32)c(C)c1	inconclusive: 22.4 µM [inhibitor, single point]	–
CN(CC(=O)Nc1ccc(F)c(F)c1F)C(=O)C1=NN(c2ccccc2)C(=O)CC1	–	inactive: 9.97%
COCCCN(C(=O)CSCc1ccc(C)cc1)c1c(N)n(Cc2ccccc2)c(=O)[nH]c1=O	inconclusive: 0.112 µM [inhibitor, full curve, poor fit]	–
CCOc1ccccc1C(=O)NC1(C(F)(F)F)C(=O)Nc2c1c(=O)[nH]c(=O)n2-c1ccccc1 (stereo not drawn)	–	inactive: -18% [at 46.1 µM]
COc1ccccc1C1CC(=O)Nc2cc(C)c(C)cc21 (stereo not drawn)	inconclusive: 5.62 µM [inhibitor, single point]	–
CCOC(=O)C1=NNC(C(=O)c2ccc(Cl)cc2)C1c1ccc(OC)cc1 (stereo not drawn)	–	inactive: -5.99%
CN1C(=O)NC(=O)/C(=C/c2ccc([N+](=O)[O-])o2)C1=O	inconclusive: 3.16 µM [inhibitor, single point]	–
COc1ccccc1/C=C/C=C1N=C(/C=C/c2ccc(Cl)cc2)OC/1=O	inconclusive: 0.562 µM [inhibitor, single point]	–
Cc1cc(Br)c(OCc2ccc(C(=O)N/N=C3\CC4CC=CC34)cc2)c(Br)c1 (stereo not drawn)	inconclusive: 2.82 µM [inhibitor, full curve]	–
CC(C)C[C@H](N)c1nnc(S(=O)(=O)Cc2ccc(F)cc2)o1	inconclusive: 35.5 µM [inhibitor, partial curve, poor fit]	–
O=C(COC(=O)/C=C/c1ccc(S(=O)(=O)N2CCCCCC2)cc1)NCc1ccccc1Cl	inconclusive: 1.64 µM [inhibitor, partial curve, poor fit]	–
CCCN1/C(=C(\C#N)C2=NS(=O)(=O)c3ccccc32)N(C)c2ccccc21	–	inactive: -12.3% [at 46.1 µM]
CCOC(=O)c1[nH]c2ccc(OCC)cc2c1NC(=O)CN1CCC2(CC1)OCCO2	inconclusive: 35.5 µM [inhibitor, single point]	–
CCCCCCCCCCCC(=O)NC(C(=O)OCC)C(O)c1cccc([N+](=O)[O-])c1 (stereo not drawn)	inconclusive: 17.8 µM [inhibitor, single point]	–
Cc1nc(N/N=C/c2ccccn2)sc1C	active: 1.78 µM	–
Cc1cc(C(=O)OCC(=O)Nc2cccc(S(N)(=O)=O)c2)c2ccccc2n1	–	inactive: 8.72%
